± gives the standard error. Many entries were measured with a wide error.
B1: glmS ribozyme (parent)
chain: AUAAAAGCGCCAGAACUACAGAAAUGUAGUUGACGAGGAGGAGGUUUAUCGAAUUUUCGGCGGAUGCCUCCAAA

Variants of: B1
Assay: self-cleavage kobs at 160 uM GlcN6P; higher = faster cleavage; RNA array
Settings: with glucosamine-6-phosphate
Outline: (§1)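 Weighted Michaelis–Menten fits across concentrations supplied kcat and KM, based on kobs from one- or two-exponential decay fits to normalised per-tile medians. The data came from barcoded ribozyme variants transcribed in situ by E. coli RNA polymerase on sequenced MiSeq chips and tracked at 37 °C by a hybridised Cy3 probe. Glucosamine-6-phosphate (40 μM to 10 mM) in HEPES/KCl/Mg(OAc)2 buffer was flowed in.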

| Variant | self-cleavage kobs at 160 uM GlcN6P [s⁻¹] |
| --- | --- |
| AUAAAAGCGCCAGAACUACAGAAAUGUAGUUGACGAGGAGGAGGUACAUCGAAUUUUCGGCGGAUGCCUACAAA [U46A U47C C70A] | 2.74e-05 ± 2.1e-05 |
| AUAAAAGCGCCAGAACUACAGAAAUGUAGUUGCCGAGGAGGAGGUUUAUGGAAAUUUCGGCGGAUGCCUCCAAA [A33C C50G U54A] | 0.00025 ± 0.00013 |
| AUAAAAGCGCCAGAACUACAGAAAUGUAGUUGACGAGGAGGAGGUUUAUCGAAUUUUAGGCCGAUGCCUGCAAA [C58A G62C C70G] | 2.82e-05 ± 2e-05 |
| AUAAAAGCGCCAGAACUACAGAAAUGUAGUUGACGAGGAGGAGGUUUAUCGAAUUUUUGGGGGAUGUCUCCAAA [C58U C61G C67U] | 3.82e-05 ± 2.5e-05 |
| AUAAAAGCGCCAGAACUACAGAAAUGUAAUUGACGAGGAGGAGGUUUAUCGAAUUUUCGGCGGAUGCCUCAAAA [G29A C71A] | 0.000143 ± 0.0001 |
| AUAAAAGCGCCAGAACUACAGAAAUGUAGUUGACGUGGAGGAGGUUUAUCGAAUUUUCGGCGGGUGCCACGAAA [A36U A64G U69A C71G] | 6.44e-05 ± 3.4e-05 |
| AUAAAAGCGCCAGAACUACAGAAAUGUAGUUGACGAGGAGGAGGUUUAUCGAAUUUUCGGCGGAUGACGCCAAA [C67A U69G] | 3.02e-05 ± 1.6e-05 |
| AUAAAAGCGCCAGAACUACAGAAAUGUAGUUGACGACGAGGAGGUUUAUCGAAUUUUCGGCGGAUCCCUCAAAA [G37C G66C C71A] | 5.9e-05 ± 3.1e-05 |
| AUAAAAGCGCCAGAACUACAGAAAUGUAGUUGACGAGGAGGAGGUUUAUUGAAUUUCCGGCGGAUGGCUCCAAA [C50U U57C C67G] | 3.42e-05 ± 3.1e-05 |
| AUAAAAGCGCCAGAACUACAGAAAUGUAAACGACGAGGAGGAGGUUUAUCGAAUUUUCGGCGGAUGCCUCCAAA [G29A U30A U31C] | 3.68e-05 ± 2e-05 |
| AUAAAAGCGCCAGAACUACAGAAAUGUAGUUAACGAGGAGGAGGUGUAUCGAAUUUUCGGCGGAUGCCUCCAAA [G32A U46G] | 4.68e-05 ± 2.5e-05 |
| AUAAAAGCGCCAGAACUACAGAAAUGUAGUUGACGAGGAGGAGGUUUAUCGAAUUUUCAGCGGAUGGCUCCAAA [G59A C67G] | 1.63e-05 ± 1.3e-05 |
| AUAAAAGCGCCAGAACUACAGAAAUGUAGUUGUCAAGGAGGAGGUUUAUGGAAUUUUCGGCGGAUGCCUCCAAA [A33U G35A C50G] | 9.75e-05 ± 6.6e-05 |
| AUAAAAGCGCCAGAACUACAGAAAUGUAGUUGACGAGGAGGAAGUUUAUCGAAUUUUCGGCGGAUGCGUCCAAA [G43A C68G] | 2.98e-05 ± 1.8e-05 |
| AUAAAAGCGCCAGAACUACAGAAAUGUAGUUGACGAGGAGAAGGUUUAUCGAAUUUUCGGCGGAAGCCUCCAAA [G41A U65A] | 2.55e-05 ± 1.4e-05 |
| AUAAAAGCGCCAGAACUACAGAAAUGUAGCUGACGAGGAGGAGGUUUAUCGAAUUUUCGGCGGAUGCAUCCAAA [U30C C68A] | 2.29e-05 ± 1.2e-05 |
| AUAAAAGCGCCAGAACUACAGAAAUGUAGUUGACGAGGAGGAGGUUUAUCGAAUUUUCGGCGGAUGAAUCCAAA [C67A C68A] | 2.57e-05 ± 2e-05 |
| AUAAAAGCGCCAGAACUACAGAAAUGUAGUUCACGAGGAGGAGGUUUAUCGAAUUUUAGGCGGAUGCCUCCAAA [G32C C58A] | 2.13e-05 ± 1.7e-05 |
| AUAAAAGCGCCAGAACUACAGAAAUGUAGUUGACGAGGAGGAGGUUUAAUGAAUUUUCGGGGGAUGCCUCCAAA [U49A C50U C61G] | 2.81e-05 ± 2.2e-05 |
| AUAAAAGCGCCAGAACUACAGAAAUGUAGUUGACGAGGAGGUGGUUUAUCGAGUUUUCGGCGGAUGCCUCCAAA [A42U A53G] | 2.8e-05 ± 1.7e-05 |
| AUAAAAGCGCCAGAACUACAGAAAUGUAGUUGGCGAGGAGGAGGUUUAUGGAAUUUUCUGCGGAUGCCUCCAAA [A33G C50G G59U] | 3.55e-05 ± 2e-05 |
| AUAAAAGCGCCAGAACUACAGAAAUGUAGUUGACGAGGAGGAGGUUUAUCGAAUUUUCGGCGGAUGCUUCUAAA [C68U C71U] | 1.37e-05 ± 9e-06 |
| AUAAAAGCGCCAGAACUACAGAAAUGUAGAUGACGAGGAGGAGGUUUAUCGAAUUUUCGGCGGAUGCCAGCAAA [U30A U69A C70G] | 3.54e-05 ± 2.4e-05 |
| AUAAAAGCGCCAGAACUACAGAAAUGUAGUUGACGAGGAGGAGGUUGUUCGAAUUUUCGGCGGAUGCUUCCAAA [U47G A48U C68U] | 4.16e-05 ± 2.6e-05 |

Variants of: B1
Assay: self-cleavage kobs at 2500 uM GlcN6P; higher = faster cleavage; RNA array
Settings: with glucosamine-6-phosphate
Outline: as §1

| Variant | self-cleavage kobs at 2500 uM GlcN6P [s⁻¹] |
| --- | --- |
| AUAAAAGCACCAGGACUACAGAAAUGUAGUUGACGAGGAGGAGGUUUAUCGAAUUUUCGGCGGAUGCCUCCAAA [G9A A14G] | 1.43e-05 ± 1.3e-05 |
| AUAAAAACGCCAGAACUACAGAAAUGUAGUUGACGAGGAGGAGGUUUAUCGAAUUUUCGGCGGAUGCCUUCAAA [G7A C70U] | 1.9e-05 ± 9.7e-06 |
| AUAAAAGCGCCAGAACUACAGAAAUGUAGUUGACGAGGAGGAGGUUUAUCGAAUUUUAGGCCGAUGCCUGCAAA [C58A G62C C70G] | 3.21e-05 ± 2.2e-05 |
| AUAAAAGCGCCAGAACUACAGAAAUGUAGUUGACGAGGAGGAGGUUUAUCGAAUUUUUGGGGGAUGUCUCCAAA [C58U C61G C67U] | 4.74e-05 ± 2.7e-05 |
| AUAAAAGCGCCAGAACUACAGAAAUGUAGUUGACGUGGAGGAGGUUUAUCGAAUUUUCGGCGGGUGCCACGAAA [A36U A64G U69A C71G] | 5.21e-05 ± 2.7e-05 |
| AUAAAGGCGCCAGAACUACAGAAAUGUAGUUGACGAGGAGGAGGUUUAUCGAAUUUUCGGGGGAUGCCUCGAAA [A6G C61G C71G] | 4.33e-05 ± 2.5e-05 |
| AUAAAAGAGCCAGAACUACAGAAAUGUAGUAGACGAGGAGGAGGUUUAUGGAUUUUUCGGCGGAUGCCUACAAA [C8A U31A C50G A53U C70A] | 3.55e-05 ± 2.9e-05 |
| AUAAAAGCGACAGAACUACAGAAAUGUAGUUGACGAGGAGGAGGUUUAUCGUAUUUUCGGCGGAUGCAUCCAAA [C10A A52U C68A] | 4.7e-05 ± 2.5e-05 |
| AUAAAAGCGCCAGAACUACAGAAAUGUAGUUGUCAAGGAGGAGGUUUAUGGAAUUUUCGGCGGAUGCCUCCAAA [A33U G35A C50G] | 4.33e-05 ± 2.9e-05 |
| AUAAAUGCGCCAGAACUACAGAAAUGUAGUCGACGAGGAGGAGGUUUAUCGAAUUUUCGGCGGAUGCCUCCAAA [A6U U31C] | 2.61e-05 ± 1.7e-05 |
| AUAAAUGCGCCAGAACUACAGAAAUGUAGUUGACGAGGAGGAGGUUUAUCGAAUUUUCGGCGGAUGAAUCCAAA [A6U C67A C68A] | 2.31e-05 ± 2e-05 |
| AUAAAAGCGCCAGAACUACAGAAAUGUAGUUGGCGAGGAGGAGGUUUAUGGAAUUUUCUGCGGAUGCCUCCAAA [A33G C50G G59U] | 3.87e-05 ± 2.3e-05 |
| AUAAAAGCGCCAGAACUACAGAAAUGUAGAUGACGAGGAGGAGGUUUAUCGAAUUUUCGGCGGAUGCCAGCAAA [U30A U69A C70G] | 2.98e-05 ± 2.4e-05 |

Some of the entries above, set out differently.
Variant,self-cleavage kobs at 2500 uM GlcN6P [s⁻¹]
AUAAAAACGCCAGAACUACAGAAAUGUAGUUGACGAGGAGGAGGUUUAUCGAAUUUUCGGCGGAUGCCUUCAAA [G7A C70U],1.9e-05 ± 9.7e-06
AUAAAAGCGCCAGAACUACAGAAAUGUAGUUGACGAGGAGGAGGUUUAUCGAAUUUUAGGCCGAUGCCUGCAAA [C58A G62C C70G],3.21e-05 ± 2.2e-05
AUAAAAGCGCCAGAACUACAGAAAUGUAGUUGACGUGGAGGAGGUUUAUCGAAUUUUCGGCGGGUGCCACGAAA [A36U A64G U69A C71G],5.21e-05 ± 2.7e-05
